According to publication PMC6025110:
Results are given in words; binding and its absence hold for the method and conditions named. Binding seen in cells or lysates may run through a third protein. Some results given as binding are weak or reduced against the parent protein; the word gives no strength.

Sequences of proteins named here, by UniProt entry; tags and fusion partners are left off. Residues count along the entry.
UniProt Q14667, residues 32-2235: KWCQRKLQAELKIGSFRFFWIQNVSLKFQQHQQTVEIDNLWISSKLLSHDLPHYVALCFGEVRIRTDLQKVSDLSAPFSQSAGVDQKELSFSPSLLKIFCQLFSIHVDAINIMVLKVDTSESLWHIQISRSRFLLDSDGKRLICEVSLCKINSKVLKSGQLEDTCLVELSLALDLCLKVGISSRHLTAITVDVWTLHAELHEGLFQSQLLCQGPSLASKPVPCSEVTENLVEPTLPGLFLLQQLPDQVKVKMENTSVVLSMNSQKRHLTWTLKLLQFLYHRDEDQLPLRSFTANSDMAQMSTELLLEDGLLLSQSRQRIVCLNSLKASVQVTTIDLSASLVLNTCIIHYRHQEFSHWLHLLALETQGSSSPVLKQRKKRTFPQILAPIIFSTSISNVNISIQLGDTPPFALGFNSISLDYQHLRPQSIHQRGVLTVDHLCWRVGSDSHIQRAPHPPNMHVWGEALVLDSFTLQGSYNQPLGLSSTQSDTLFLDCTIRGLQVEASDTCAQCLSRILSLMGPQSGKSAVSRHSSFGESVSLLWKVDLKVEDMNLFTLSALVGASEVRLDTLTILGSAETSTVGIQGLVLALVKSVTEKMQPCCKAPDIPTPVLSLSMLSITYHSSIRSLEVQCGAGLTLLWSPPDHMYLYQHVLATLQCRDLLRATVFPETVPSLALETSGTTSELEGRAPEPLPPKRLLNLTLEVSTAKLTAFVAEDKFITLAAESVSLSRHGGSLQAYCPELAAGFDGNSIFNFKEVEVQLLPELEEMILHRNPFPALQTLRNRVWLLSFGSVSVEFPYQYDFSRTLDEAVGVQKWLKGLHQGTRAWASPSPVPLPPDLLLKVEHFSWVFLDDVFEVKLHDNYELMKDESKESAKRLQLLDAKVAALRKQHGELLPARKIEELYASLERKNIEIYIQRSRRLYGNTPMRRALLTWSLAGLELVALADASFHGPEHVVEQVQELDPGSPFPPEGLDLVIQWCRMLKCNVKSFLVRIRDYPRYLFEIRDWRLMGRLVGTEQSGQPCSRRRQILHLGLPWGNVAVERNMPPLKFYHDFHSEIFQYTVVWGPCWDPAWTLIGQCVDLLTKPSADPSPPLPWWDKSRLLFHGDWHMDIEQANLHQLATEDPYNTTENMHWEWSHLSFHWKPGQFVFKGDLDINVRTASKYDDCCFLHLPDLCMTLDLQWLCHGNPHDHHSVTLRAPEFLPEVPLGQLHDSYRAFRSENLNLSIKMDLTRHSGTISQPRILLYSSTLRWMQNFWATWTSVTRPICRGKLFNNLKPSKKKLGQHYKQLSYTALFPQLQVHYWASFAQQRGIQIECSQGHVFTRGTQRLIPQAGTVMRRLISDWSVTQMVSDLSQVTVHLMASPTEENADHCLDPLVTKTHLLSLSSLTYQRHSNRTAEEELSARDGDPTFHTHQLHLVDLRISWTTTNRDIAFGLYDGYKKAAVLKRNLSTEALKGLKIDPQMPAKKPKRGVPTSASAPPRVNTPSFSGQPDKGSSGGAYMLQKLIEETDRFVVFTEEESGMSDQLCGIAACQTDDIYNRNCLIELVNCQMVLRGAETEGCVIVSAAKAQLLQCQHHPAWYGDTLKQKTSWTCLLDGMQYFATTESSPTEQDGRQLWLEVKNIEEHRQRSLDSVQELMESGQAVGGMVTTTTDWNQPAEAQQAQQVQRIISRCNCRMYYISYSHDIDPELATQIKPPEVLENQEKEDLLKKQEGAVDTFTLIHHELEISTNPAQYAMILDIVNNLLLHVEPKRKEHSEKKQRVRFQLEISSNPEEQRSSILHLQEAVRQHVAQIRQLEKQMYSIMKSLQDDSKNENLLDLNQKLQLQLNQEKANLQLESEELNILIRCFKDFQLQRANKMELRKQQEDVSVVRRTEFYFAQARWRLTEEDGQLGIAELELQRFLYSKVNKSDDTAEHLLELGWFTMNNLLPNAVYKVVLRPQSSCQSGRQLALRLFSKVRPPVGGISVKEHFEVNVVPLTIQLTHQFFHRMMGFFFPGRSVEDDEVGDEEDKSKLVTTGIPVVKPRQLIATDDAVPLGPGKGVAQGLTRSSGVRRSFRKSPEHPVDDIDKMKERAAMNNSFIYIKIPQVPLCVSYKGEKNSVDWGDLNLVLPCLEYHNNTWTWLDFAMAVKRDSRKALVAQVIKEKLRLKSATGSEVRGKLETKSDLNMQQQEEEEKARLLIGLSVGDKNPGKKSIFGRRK
UniProt P0DMV8: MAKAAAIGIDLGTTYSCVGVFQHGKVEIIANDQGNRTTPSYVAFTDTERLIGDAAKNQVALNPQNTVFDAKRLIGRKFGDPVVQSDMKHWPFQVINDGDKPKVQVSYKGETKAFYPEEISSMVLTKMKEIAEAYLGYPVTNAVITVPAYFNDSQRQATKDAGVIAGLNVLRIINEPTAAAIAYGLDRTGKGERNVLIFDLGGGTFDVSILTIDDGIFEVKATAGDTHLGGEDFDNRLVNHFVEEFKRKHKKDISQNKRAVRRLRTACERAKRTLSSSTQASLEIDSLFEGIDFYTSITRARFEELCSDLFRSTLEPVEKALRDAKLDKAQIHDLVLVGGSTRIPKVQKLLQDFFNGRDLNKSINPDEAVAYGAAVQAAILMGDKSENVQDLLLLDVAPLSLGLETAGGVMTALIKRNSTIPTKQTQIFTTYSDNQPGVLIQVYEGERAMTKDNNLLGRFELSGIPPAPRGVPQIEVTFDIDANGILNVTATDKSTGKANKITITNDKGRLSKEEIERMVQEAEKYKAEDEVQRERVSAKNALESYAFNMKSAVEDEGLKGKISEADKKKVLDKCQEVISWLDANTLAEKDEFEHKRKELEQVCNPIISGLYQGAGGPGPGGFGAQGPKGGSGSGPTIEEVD

How the values were obtained:
[1] = biological target: recombinant KIAA0100 protein with FLAG and Myc tags on its C-terminus (human) (UniProt Q14667); assay: co-IP; HEK293/pKIA cells cross-linked with 6 mM DTBP for 5 min, NP40 lysis buffer; capture with anti-FLAG monoclonal antibody on Dynabeads protein G; Western blot; controls anti-DIG isotype antibody and bare beads
[2] = biological target: HSPA1A (human (endogenous in HEK293)) (UniProt P0DMV8); assay: co-IP; HEK293/pKIA cells cross-linked with 6 mM DTBP for 5 min, NP40 lysis buffer; capture with anti-HSPA1A monoclonal antibody on Dynabeads protein G; Western blot; controls anti-DIG isotype antibody and bare beads

Row | Substance | binding [1] | binding [2]
1 | HSPA1A (from UniProt P0DMV8 1-641) | binds | 
2 | recombinant KIAA0100 protein with FLAG and Myc tags on its C-terminus (from UniProt Q14667 32-2235) |  | binds
